According to US20220041613A1, “TYROSINE KINASE INHIBITOR COMPOSITIONS, METHODS OF MAKING AND METHODS OF USE” (Black Diamond Therapeutics, Inc., priority 2018, published 2022):
“Also recorded” adds a separate entry of the source. For some assays here: At least one structure is not confirmed: it was looked up by name or label, or the drawing left a doubt. Some entries share one result that the patent states for a list of compounds.

The chains behind the UniProt entries cited, without tags or fusion partners. Residues count along the entry.
UniProt P04626, 23-1255 S310F: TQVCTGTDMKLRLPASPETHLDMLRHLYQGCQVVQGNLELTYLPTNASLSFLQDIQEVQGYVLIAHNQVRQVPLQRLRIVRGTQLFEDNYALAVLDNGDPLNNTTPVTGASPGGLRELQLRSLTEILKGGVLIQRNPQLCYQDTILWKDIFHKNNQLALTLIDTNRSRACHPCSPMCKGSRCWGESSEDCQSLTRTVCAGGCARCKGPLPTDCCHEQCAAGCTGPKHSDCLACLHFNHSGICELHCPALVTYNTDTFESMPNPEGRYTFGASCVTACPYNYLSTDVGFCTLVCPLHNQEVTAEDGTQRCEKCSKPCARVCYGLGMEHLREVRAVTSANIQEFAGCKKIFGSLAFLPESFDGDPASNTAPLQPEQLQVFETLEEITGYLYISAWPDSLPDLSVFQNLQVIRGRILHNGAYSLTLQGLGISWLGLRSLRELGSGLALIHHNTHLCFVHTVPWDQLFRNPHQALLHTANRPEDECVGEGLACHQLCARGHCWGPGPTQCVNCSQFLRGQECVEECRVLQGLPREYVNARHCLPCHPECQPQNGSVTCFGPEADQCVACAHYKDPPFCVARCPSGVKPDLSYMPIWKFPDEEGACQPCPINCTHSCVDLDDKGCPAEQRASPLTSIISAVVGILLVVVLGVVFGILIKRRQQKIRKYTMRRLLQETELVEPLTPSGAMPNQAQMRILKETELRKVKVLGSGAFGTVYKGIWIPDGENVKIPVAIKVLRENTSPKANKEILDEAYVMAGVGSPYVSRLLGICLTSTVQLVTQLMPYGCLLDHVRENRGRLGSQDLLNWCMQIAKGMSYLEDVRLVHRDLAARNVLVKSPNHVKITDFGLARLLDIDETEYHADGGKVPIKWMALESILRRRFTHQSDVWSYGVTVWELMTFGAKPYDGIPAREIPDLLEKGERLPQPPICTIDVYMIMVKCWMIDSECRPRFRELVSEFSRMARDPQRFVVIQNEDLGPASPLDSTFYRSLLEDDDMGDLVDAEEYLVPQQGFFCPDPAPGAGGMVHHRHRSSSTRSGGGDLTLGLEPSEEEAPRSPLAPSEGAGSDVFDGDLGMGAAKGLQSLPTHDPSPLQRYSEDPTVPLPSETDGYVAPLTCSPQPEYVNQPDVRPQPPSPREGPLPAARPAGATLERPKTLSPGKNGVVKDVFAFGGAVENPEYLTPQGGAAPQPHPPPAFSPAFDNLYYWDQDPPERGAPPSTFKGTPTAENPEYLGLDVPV

Columns and labels:
[1] = system: HER2-Δ16, HER2-C311R, HER2-S310F, HER4Δ16; assay: Western blot under non-reducing conditions: monomeric and dimeric HER2 and HER4 levels; assay type: cell-based, Homo sapiens
[2] = system: GBM; details: cited from earlier work
[3] = molecular target: T1, HER2 S310F (Homo sapiens, UniProt P04626, S310F); assay: Assay for cell proliferation (BaF3 transformants, CellTiterGlo), Activity for Inhibiting HER2; assay type: cell-based; details: 'about ... or less'
T1 construct: expressed in transfected cells; host or cells: BaF3 (murine pro-B) transformants

[4] = radiation and temozolomide alone

## CN(C)C/C=C/C(=O)Nc1cc2c(Nc3ccc(F)c(Cl)c3)ncnc2cc1O[C@H]1CCOC1 [Afatinib, afatinib]
[1]
  covalent dimers of HER2 and HER4 extracellular variants: levels of covalent dimers increased; also recorded: induce the expression of covalent dimers; also recorded: induce the formation of covalent dimers; also recorded: dose dependent increase in covalently dimerized receptors
[2]; >30 clinical trials and >1500 patients
  clinical benefit in GBM: failed to produce any benefit

## C=CC(=O)Nc1cc2c(Nc3ccc4c(cnn4Cc4cccc(F)c4)c3)ncnc2cc1OCCN(C)C [compound 10]
[3]
  IC50: ≤ 50 nM

## Cn1nnc2c(C(N)=O)ncn2c1=O [temozolomide, Temozolomide]
[2]; [4]
  median OS (mOS): 14.6 months
  median PFS (mPFS): 6.9 months
